Laboratory results published in doi:10.1101/2024.03.28.587122.
No constants are given. Whether binding was seen depends on the method and setting. In cells and extracts the contact can be indirect. A yes stands for co-enrichment or nearness to the bait. Other partners may have been found. Blank lines part the entries; values can stand above or below the binder they belong to.

Chains of the proteins cited; added tags and fusions are not shown. Lines headed by an entry give the natural chain unless they say otherwise; changes in a name come on top.
UniProt Q9LMA8: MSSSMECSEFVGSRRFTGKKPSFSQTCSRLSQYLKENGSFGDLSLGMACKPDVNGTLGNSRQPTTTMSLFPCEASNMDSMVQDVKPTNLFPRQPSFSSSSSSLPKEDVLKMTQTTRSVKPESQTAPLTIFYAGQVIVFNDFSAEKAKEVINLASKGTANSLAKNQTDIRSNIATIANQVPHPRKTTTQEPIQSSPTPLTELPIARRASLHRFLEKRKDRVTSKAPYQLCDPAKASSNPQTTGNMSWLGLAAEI

Target: Venus-JAZ1 (in 35S:Venus-JAZ1 transgenic Arabidopsis seedlings) (Arabidopsis thaliana) (UniProt Q9LMA8)
Test: affinity purification with mass spectrometry

binding: binds
B1: ASK4 (protein, UniProt Q9LNT9 1-163)
chain: MAETKKMIILKSSDGESFEIEEAVAVKSQTIKHMIEDDCADNGIPLPNVTGAILAKVIEYCKKHVEAAAEAGGDKDFYGSAENDELKNWDSEFVKVDQPTLFDLILAANYLNIGGLLDLTCKAVADQMRGKTPEQMRAHFNIKNDYTPEEEAEVRNENKWAFE

binding: binds
B2: CUL4 (protein, UniProt Q8LGH4 1-792)
chain: MSLPTKRSTFSAASASDDSSYSSPPMKKAKNDLHHSPQHPNTADKVVGFHMEEDPTPAAANLSRKKATLPQPTKKFVIKLNKAKPTLPTNFEENTWEKLQSAIRAIFLKKKISFDLESLYQAVDNLCLHKLDGKLYDQIEKECEEHISAALQSLVGQNTDLTVFLSRVEKCWQDFCDQMLMIRSIALTLDRKYVIQNPNVRSLWEMGLQLFRKHLSLAPEVEQRTVKGLLSMIEKERLAEAVNRTLLSHLLKMFTALGIYMESFEKPFLEGTSEFYAAEGMKYMQQSDVPEYLKHVEGRLHEENERCILYIDAVTRKPLITTVERQLLERHILVVLEKGFTTLMDGRRTEDLQRMQTLFSRVNALESLRQALSSYVRKTGQKIVMDEEKDKDMVQSLLDFKASLDIIWEESFYKNESFGNTIKDSFEHLINLRQNRPAELIAKFLDEKLRAGNKGTSEEELESVLEKVLVLFRFIQGKDVFEAFYKKDLAKRLLLGKSASIDAEKSMISKLKTECGSQFTNKLEGMFKDIELSKEINESFKQSSQARTKLPSGIEMSVHVLTTGYWPTYPPMDVKLPHELNVYQDIFKEFYLSKYSGRRLMWQNSLGHCVLKADFSKGKKELAVSLFQAVVLMLFNDAMKLSFEDIKDSTSIEDKELRRTLQSLACGKVRVLQKNPKGRDVEDGDEFEFNDEFAAPLYRIKVNAIQMKETVEENTSTTERVFQDRQYQIDAAIVRIMKTRKVLSHTLLITELFQQLKFPIKPADLKKRIESLIDREYLEREKSNPQIYNYLA
